Assay results as given in the supplement of paper PMC10849652.
The list shows a part of the results. Residues, ends and D or L forms follow the SMILES beside them. *: point of attachment. Cbz = O=C(OCc1ccccc1)*

The chains behind the UniProt entries cited, without tags or fusion partners. Where a name states a change or a piece, a line headed by the entry shows the natural chain unless it says otherwise.
UniProt Q8TF05: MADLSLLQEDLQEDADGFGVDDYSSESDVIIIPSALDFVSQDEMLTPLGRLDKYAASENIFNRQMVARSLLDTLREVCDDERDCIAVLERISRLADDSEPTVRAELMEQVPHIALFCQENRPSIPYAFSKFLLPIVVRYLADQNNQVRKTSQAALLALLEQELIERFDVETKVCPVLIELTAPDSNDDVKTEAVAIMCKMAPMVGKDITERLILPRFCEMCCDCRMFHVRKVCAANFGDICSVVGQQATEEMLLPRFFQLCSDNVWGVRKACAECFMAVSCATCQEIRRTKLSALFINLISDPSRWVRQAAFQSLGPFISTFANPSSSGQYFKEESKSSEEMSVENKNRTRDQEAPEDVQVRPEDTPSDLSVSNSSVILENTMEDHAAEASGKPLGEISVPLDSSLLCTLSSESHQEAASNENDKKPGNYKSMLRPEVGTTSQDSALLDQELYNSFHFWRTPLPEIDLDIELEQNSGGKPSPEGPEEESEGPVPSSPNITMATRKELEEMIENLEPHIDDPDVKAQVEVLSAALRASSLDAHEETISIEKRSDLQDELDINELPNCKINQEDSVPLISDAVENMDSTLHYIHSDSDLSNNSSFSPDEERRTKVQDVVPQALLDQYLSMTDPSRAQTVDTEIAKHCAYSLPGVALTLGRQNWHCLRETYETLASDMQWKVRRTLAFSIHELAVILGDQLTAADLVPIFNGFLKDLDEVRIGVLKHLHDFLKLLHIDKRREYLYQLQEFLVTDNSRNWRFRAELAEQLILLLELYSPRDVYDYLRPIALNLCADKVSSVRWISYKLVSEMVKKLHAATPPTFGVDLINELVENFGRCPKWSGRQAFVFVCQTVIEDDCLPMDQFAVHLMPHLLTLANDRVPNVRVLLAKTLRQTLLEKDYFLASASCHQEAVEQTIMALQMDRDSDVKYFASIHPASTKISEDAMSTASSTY
UniProt Q9NR22, whole entry, looked up: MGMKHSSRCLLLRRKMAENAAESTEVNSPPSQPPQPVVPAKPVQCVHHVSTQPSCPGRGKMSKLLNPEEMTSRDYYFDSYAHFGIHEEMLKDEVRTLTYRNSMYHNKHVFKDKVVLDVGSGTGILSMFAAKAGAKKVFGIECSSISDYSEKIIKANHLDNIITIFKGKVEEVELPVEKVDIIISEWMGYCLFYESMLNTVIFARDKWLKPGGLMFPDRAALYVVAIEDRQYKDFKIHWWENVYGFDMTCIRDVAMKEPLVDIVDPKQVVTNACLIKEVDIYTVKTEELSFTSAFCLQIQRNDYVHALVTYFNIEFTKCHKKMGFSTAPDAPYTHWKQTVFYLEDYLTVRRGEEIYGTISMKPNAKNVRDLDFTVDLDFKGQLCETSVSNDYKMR
UniProt Q13362, whole entry, looked up: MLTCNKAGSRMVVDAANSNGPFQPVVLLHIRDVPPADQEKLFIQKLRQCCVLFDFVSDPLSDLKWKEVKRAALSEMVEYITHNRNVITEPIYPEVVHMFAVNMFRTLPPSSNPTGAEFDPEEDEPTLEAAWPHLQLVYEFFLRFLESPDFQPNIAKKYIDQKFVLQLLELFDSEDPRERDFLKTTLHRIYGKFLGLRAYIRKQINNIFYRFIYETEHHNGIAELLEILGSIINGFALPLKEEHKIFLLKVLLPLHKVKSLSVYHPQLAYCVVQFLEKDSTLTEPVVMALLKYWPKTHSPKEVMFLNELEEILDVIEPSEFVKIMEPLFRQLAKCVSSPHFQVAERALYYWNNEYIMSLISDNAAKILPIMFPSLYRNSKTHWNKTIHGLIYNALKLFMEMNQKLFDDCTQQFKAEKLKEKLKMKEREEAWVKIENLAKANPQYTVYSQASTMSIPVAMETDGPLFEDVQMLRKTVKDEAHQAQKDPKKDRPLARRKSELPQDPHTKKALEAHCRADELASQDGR
UniProt P49642: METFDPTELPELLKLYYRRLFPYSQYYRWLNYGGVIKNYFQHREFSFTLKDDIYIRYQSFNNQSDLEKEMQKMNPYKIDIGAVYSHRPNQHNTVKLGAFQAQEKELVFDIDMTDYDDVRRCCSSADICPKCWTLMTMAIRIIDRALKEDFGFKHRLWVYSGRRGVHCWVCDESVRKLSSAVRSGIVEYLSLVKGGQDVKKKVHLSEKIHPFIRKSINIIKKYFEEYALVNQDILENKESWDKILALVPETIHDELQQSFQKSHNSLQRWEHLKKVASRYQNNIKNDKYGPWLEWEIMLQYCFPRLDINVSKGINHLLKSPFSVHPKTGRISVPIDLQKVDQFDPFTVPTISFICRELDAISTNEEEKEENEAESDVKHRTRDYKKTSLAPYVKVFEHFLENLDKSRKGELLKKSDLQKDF
UniProt Q8WY54: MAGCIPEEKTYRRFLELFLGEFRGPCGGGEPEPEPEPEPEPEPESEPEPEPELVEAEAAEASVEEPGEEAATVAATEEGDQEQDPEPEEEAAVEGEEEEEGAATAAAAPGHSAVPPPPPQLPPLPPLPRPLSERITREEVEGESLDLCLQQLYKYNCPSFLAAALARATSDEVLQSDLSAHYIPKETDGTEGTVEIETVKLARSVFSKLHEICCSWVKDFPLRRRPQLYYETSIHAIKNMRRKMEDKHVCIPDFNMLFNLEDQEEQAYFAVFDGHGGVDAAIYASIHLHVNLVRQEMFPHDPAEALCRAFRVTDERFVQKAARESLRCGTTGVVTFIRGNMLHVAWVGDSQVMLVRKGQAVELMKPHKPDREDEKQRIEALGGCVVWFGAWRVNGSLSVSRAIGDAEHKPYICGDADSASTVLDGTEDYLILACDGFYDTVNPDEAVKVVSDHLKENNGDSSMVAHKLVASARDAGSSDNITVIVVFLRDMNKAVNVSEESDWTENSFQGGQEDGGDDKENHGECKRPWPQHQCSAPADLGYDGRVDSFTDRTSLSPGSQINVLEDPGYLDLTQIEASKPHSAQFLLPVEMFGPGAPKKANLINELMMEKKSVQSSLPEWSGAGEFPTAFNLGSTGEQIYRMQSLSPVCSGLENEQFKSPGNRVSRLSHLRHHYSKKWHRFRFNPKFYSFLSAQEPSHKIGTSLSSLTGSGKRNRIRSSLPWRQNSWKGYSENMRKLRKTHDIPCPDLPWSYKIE
UniProt Q9UMR5: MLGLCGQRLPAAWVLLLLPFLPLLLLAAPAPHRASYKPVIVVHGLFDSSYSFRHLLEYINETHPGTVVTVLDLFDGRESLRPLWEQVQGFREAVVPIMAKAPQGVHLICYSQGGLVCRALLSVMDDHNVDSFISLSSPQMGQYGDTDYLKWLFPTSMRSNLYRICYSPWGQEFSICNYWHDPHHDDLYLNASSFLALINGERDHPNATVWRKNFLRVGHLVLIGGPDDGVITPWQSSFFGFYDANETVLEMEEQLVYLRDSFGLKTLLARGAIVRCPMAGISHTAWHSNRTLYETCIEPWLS
UniProt P62714, whole entry, looked up: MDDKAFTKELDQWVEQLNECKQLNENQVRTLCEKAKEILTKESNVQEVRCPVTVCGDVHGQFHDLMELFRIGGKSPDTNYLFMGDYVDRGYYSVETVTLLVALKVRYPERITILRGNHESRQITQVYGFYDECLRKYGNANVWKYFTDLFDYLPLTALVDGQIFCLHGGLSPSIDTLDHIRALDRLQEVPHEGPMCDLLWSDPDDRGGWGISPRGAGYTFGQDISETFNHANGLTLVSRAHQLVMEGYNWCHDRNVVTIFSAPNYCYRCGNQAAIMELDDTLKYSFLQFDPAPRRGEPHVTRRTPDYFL
UniProt O75400: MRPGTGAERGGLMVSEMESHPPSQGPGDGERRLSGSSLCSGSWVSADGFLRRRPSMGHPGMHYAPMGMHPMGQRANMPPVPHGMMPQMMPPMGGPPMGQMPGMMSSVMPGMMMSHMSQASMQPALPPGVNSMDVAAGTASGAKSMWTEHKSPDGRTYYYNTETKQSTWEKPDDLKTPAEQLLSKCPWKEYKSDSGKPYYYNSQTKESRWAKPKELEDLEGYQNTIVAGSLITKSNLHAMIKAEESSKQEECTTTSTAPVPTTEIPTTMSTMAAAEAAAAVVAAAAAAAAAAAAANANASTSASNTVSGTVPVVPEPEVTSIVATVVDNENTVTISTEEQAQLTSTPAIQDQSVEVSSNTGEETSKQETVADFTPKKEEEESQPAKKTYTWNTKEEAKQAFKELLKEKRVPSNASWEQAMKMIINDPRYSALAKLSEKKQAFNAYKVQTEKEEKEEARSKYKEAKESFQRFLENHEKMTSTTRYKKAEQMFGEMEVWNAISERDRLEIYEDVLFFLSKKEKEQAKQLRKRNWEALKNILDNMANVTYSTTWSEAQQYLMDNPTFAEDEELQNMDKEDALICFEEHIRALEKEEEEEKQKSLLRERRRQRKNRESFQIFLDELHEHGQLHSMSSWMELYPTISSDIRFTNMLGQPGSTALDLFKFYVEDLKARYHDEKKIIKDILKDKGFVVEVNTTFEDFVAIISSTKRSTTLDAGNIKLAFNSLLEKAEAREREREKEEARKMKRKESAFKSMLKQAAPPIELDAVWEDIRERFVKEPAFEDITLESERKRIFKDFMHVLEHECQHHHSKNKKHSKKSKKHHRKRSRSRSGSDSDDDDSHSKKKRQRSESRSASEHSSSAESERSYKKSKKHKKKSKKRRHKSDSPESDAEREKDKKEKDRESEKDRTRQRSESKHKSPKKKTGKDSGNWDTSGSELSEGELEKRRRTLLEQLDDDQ
UniProt O43741: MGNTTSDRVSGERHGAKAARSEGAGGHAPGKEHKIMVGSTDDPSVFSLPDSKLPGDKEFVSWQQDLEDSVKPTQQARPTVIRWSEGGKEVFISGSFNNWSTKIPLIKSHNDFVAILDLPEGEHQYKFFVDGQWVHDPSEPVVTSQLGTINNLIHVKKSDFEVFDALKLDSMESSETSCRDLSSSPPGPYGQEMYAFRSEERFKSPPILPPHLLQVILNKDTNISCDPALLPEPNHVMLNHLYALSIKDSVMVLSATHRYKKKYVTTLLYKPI
UniProt Q9Y570: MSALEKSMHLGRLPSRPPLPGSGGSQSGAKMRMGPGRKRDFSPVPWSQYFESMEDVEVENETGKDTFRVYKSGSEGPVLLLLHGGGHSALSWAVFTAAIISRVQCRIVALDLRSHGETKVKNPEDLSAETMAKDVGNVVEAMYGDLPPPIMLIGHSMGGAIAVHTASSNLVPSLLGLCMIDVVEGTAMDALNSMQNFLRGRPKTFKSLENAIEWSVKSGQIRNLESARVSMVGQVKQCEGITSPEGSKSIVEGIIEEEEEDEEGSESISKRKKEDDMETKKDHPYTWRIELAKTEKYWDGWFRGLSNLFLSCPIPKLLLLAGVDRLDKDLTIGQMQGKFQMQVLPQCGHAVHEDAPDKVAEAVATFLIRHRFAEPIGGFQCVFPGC
UniProt O43395: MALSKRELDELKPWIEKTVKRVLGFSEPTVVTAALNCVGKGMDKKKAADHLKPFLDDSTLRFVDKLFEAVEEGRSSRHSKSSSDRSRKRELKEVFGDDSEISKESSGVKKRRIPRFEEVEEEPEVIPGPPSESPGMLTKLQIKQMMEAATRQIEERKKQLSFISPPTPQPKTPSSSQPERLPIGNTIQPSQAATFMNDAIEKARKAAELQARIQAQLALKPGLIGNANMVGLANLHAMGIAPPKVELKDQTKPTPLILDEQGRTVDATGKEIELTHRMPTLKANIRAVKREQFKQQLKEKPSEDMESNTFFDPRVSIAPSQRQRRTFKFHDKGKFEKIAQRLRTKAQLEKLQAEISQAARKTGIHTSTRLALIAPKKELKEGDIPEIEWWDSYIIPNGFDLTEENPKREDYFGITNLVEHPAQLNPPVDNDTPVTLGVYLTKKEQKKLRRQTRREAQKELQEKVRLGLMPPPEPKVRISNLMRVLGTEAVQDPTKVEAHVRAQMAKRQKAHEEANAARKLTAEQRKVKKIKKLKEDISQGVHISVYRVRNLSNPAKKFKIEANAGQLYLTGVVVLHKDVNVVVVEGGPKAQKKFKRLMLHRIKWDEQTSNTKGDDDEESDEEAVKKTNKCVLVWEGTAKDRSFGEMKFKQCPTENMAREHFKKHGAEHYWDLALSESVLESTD
UniProt Q9Y478: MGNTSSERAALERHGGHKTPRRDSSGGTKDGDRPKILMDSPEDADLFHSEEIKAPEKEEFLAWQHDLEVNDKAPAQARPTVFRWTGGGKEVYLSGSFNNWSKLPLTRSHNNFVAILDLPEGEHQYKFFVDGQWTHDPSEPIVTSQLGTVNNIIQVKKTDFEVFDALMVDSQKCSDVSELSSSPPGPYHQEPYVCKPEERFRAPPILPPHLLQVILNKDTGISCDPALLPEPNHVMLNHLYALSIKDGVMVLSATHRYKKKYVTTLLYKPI

Key:
Assay in all cases: log2 fold change, soluble protein after heating vs DMSO (PISA); higher = thermal stabilisation; K562 cells, 10 uM, 30 min; active = over 0.2 and 3.5 SD of the protein, either way, in both replicates (recomputed)
erlotinib = compound: C#Cc1cccc(Nc2ncnc3cc(OCCOC)c(OCCOC)cc23)c1 [erlotinib]
Outline: (§1)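 Soluble protein was defined as the supernatant after 21,000xg for 90 min. It came from K562 cells at 2×10^6 cells/mL given 10 μM compound for 30 min, heated in aliquots for 3 min across 48°C-58°C, pooled, and extracted in PBS with 0.5% NP-40 at 4°C, and was quantified by TMTpro 16plex LC-MS/MS with equalised channel sums. Thermal stability against control samples, from duplicates, is reported as log2 fold change.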

[1] = compound: C/C(=N\NC(=O)C1=CC(=CC=C1)S(=O)(=O)N2CCOCC2)/C3=C(C=CC(=C3)Cl)O
Outline: as §1

[2] = compound: C1=CC(=C(C=C1Cl)C2=NC3=NC=CN=C3C(=N2)NC4=CC=NC=C4)F
Outline: as §1

[3] = compound: C1=CC(=CC=C1C2=NC3=C(N2)C=C(C=C3)C(=O)N)OC4=CC=C(C=C4)Cl
Outline: as §1

[4] = compound: C1=CC2=C(C=CC(=C2)/C=C\3/C(=O)NC(=NCC4=CC=CS4)S3)N=C1
Outline: as §1

[5] = compound: C1=CC2=NC=CN=C2C=C1/C=C/3\C(=O)NC(=O)S3
Outline: as §1

[6] = compound: C1=CC=C(C=C1)C2=NC(=C(N2)C3=CC=NC=C3)C4=CC(=C(C=C4)Cl)O
Outline: as §1

[7] = compound: C1=CC=C2C(=C1)C3=NNC4=CC=CC(=C43)C2=O
Outline: as §1

[8] = compound: C1CCN(C1)C(=O)NC2=CC=CC(=C2)NC3=NC=C(C(=N3)NCCC4=CN=CN4)Br
Outline: as §1

[9] = compound: C1CN(CCC1(CC2=CC=C(C=C2)Cl)N)C3=NC=NC4=C3C=CN4
Outline: as §1

IRAK-1-4 Inhibitor I = compound: C1COCCN1CCN2C3=CC=CC=C3N=C2NC(=O)C4=CC(=CC=C4)[N+](=O)[O-] [IRAK-1-4 Inhibitor I]
Outline: as §1

ibrutinib = compound: C=CC(=O)N1CCC[C@@H](n2nc(-c3ccc(Oc4ccccc4)cc3)c3c(N)ncnc32)C1 [ibrutinib]
Outline: as §1

[10] = compound: CC(=O)c1cnc2ccc(-c3cc(Cl)c(O)c(Cl)c3)nc2c1N[C@H]1CC[C@H](CN(C)C)CC1
Outline: as §1

ralimetinib = compound: CC(C)(C)Cn1c(N)nc2ccc(-c3[nH]c(C(C)(C)C)nc3-c3ccc(F)cc3)nc21 [ralimetinib]
Outline: as §1

[11] = compound: CC(C)(O)CC(=O)NCCn1ccc2ncnc(Nc3ccc(Oc4cccc(C(F)(F)F)c4)c(Cl)c3)c21
Outline: as §1

[12] = compound: CC(C)C1=C2N=C(C=C(N2N=C1)NCC3=CC=CC=C3)NCCCCCCN
Outline: as §1

[13] = compound: CC(C)C[C@@H](C=O)NC(=O)[C@H](CC(C)C)NC(=O)[C@H](CC(C)C)NC(=O)OCc1ccccc1
Outline: as §1

pinometostat = compound: CC(C)N(C[C@H]1O[C@@H](n2cnc3c(N)ncnc32)[C@H](O)[C@@H]1O)[C@H]1C[C@@H](CCc2nc3cc(C(C)(C)C)ccc3[nH]2)C1 [pinometostat]
Outline: as §1

[14] = compound: CC1=C(C(CC(=O)N1)C2=CC=C(C=C2)C(F)(F)F)C(=O)NC3=C(C=C4C(=C3)C=NN4)F
Outline: as §1

[15] = compound: CC1=C(C2=C(C=C1)C(=O)C3=CC=CC=C3N2CCCN)C
Outline: as §1

Measured: log2 fold change

PPP4R1 (UniProt Q8TF05)
inactive: erlotinib -0.007 | [1] -0.019 | [2] 0.062 | [3] 0.016 | [4] 0.039 | [5] 0.064 | [6] 0.062 | [7] 0.007 | [8] -0.001 | [9] 0.01 | IRAK-1-4 Inhibitor I -0.001 | ibrutinib -0.002 | [10] 0.107 | ralimetinib -0.007 | [11] -0.085 | [12] -0.06 | [13] -0.046 | pinometostat 0.018 | [14] -0.012 | [15] 0.004

PRMT8 (UniProt Q9NR22)
inactive: erlotinib -0.008 | [1] 0.03 | [2] 0.159 | [3] -0.067 | [4] 0.099 | [5] -0.005 | [6] 0.122 | [7] 0.042 | [8] 0.012 | [9] 0.028 | IRAK-1-4 Inhibitor I 0.045 | ibrutinib -0.004 | [10] -0.012 | ralimetinib 0.098 | [11] -0.014 | [12] 0.001 | [13] -0.073 | pinometostat 0.026 | [15] 0.101

PPP2R5C isoform 4 (UniProt Q13362)
inactive: erlotinib 0.036 | [1] -0.022 | [2] 0.218 | [3] -0.025 | [4] -0.039 | [5] -0.004 | [6] -0.029 | [7] -0.015 | [8] 0 | [9] 0.019 | IRAK-1-4 Inhibitor I 0.027 | ibrutinib -0.051 | [10] 0.019 | ralimetinib -0.15 | [11] -0.07 | [12] -0.02 | [13] 0.034 | pinometostat 0.043 | [15] -0.032

PRIM1 (UniProt P49642)
active: [12] -0.319
inactive: erlotinib 0.005 | [1] 0.011 | [2] -0.044 | [3] 0.049 | [4] -0.005 | [5] 0.027 | [6] -0.09 | [7] 0.061 | [8] -0.033 | [9] -0.074 | IRAK-1-4 Inhibitor I -0.066 | ibrutinib -0.035 | [10] 0.007 | ralimetinib 0.048 | [11] -0.079 | [13] 0.046 | pinometostat 0.114 | [15] -0.006

PPM1E (UniProt Q8WY54)
inactive: erlotinib -0.024 | [1] 0.059 | [2] 0.156 | [3] 0.045 | [4] 0.051 | [5] 0.058 | [6] -0.017 | [7] -0.127 | [8] -0.03 | [9] -0.034 | IRAK-1-4 Inhibitor I 0.046 | ibrutinib -0.001 | [10] 0.092 | ralimetinib -0.027 | [11] -0.064 | [12] -0.084 | [13] -0.008 | pinometostat 0.003 | [14] -0.018 | [15] 0.037

PPT2 isoform 3 (UniProt Q9UMR5)
inactive: erlotinib 0 | [1] 0.056 | [2] 0.033 | [3] -0.001 | [4] -0.026 | [5] -0.02 | [6] 0.038 | [7] 0.039 | [8] -0.012 | [9] 0.031 | IRAK-1-4 Inhibitor I 0.078 | ibrutinib 0.036 | [10] -0.04 | ralimetinib 0.052 | [11] 0.006 | [12] -0.17 | [13] -0.014 | pinometostat -0.041 | [15] 0.037

PPP3CC isoform 3 (UniProt P48454)
inactive: erlotinib -0.02 | [1] 0.007 | [2] 0.072 | [3] -0.036 | [4] -0.018 | [5] -0.015 | [6] -0.014 | [7] 0.099 | [8] 0.026 | [9] 0.004 | IRAK-1-4 Inhibitor I 0.03 | ibrutinib 0.013 | [10] -0.043 | ralimetinib -0.081 | [11] -0.101 | [12] 0.021 | [13] -0.004 | pinometostat -0.098 | [14] -0.033 | [15] 0.024

PRKACA (UniProt P17612)
inactive: erlotinib 0.013 | [1] 0.033 | [2] -0.054 | [3] -0.016 | [4] -0.034 | [5] 0.042 | [6] 0.087 | [7] -0.025 | [8] -0.142 | [9] 0.047 | IRAK-1-4 Inhibitor I 0.023 | ibrutinib -0.011 | [10] -0.038 | ralimetinib -0.01 | [11] 0.01 | [12] 0.008 | [13] 0.005 | pinometostat -0.06 | [15] -0.034

PPP2CB (UniProt P62714)
inactive: erlotinib 0.001 | [1] -0.034 | [2] 0.009 | [3] 0.001 | [4] -0.011 | [5] -0.016 | [6] -0.016 | [7] -0.038 | [8] 0.01 | [9] 0.046 | IRAK-1-4 Inhibitor I 0.021 | ibrutinib 0.022 | [10] 0.001 | ralimetinib 0.004 | [11] -0.018 | [12] 0.063 | [13] -0.009 | pinometostat -0.033 | [14] 0.019 | [15] -0.023

PRPF40A (UniProt O75400)
active: [12] -0.411
inactive: erlotinib 0.082 | [1] 0.083 | [2] -0.087 | [3] 0.012 | [4] 0.032 | [5] 0.007 | [6] -0.037 | [7] -0.135 | [8] -0.129 | [9] -0.124 | IRAK-1-4 Inhibitor I -0.093 | ibrutinib -0.085 | [10] -0.149 | ralimetinib 0.095 | [11] -0.022 | [13] 0.043 | pinometostat -0.041 | [15] 0.13

PRKAB2 (UniProt O43741)
inactive: erlotinib -0.054 | [1] 0.29 | [2] 0.103 | [3] 0.032 | [4] -0.022 | [5] -0.115 | [6] 0.203 | [7] 0.144 | [8] -0.218 | [9] 0.064 | IRAK-1-4 Inhibitor I 0.003 | ibrutinib 0.054 | [10] -0.115 | ralimetinib 0.223 | [11] -0.117 | [12] -0.028 | [13] -0.175 | pinometostat -0.065 | [15] -0.053

PPME1 (UniProt Q9Y570)
inactive: erlotinib 0.012 | [1] 0.065 | [2] 0.042 | [3] 0 | [4] 0.03 | [5] 0.009 | [6] 0.035 | [7] 0.009 | [8] -0.037 | [9] 0.026 | IRAK-1-4 Inhibitor I 0.036 | ibrutinib -0.019 | [10] -0.034 | ralimetinib -0.067 | [11] 0 | [12] 0.053 | [13] -0.058 | pinometostat -0.01 | [14] -0.014 | [15] 0.038

PRPF3 (UniProt O43395)
inactive: erlotinib 0.06 | [1] 0.144 | [2] 0.069 | [3] -0.02 | [4] 0.015 | [5] 0.019 | [6] 0.057 | [7] 0 | [8] -0.07 | [9] 0.053 | IRAK-1-4 Inhibitor I -0.018 | ibrutinib -0.038 | [10] -0.179 | ralimetinib -0.008 | [11] -0.055 | [12] -0.205 | [13] -0.001 | pinometostat 0 | [15] -0.2

PRKAB1 (UniProt Q9Y478)
inactive: erlotinib 0.043 | [1] 0.15 | [2] 0.052 | [3] -0.011 | [4] -0.06 | [5] 0.024 | [6] 0.019 | [7] 0.026 | [8] -0.076 | [9] 0.068 | IRAK-1-4 Inhibitor I 0.015 | ibrutinib -0.02 | [10] -0.184 | ralimetinib 0.022 | [11] -0.069 | [12] -0.006 | [13] -0.041 | pinometostat -0.048 | [15] 0.015

PRG4 (UniProt Q92954)
inactive: erlotinib 0.002 | [1] -0.109 | [2] 0.011 | [3] -0.085 | [4] 0.15 | [5] 0.024 | [6] -0.139 | [7] -0.171 | [8] -0.143 | [9] 0.031 | IRAK-1-4 Inhibitor I -0.072 | ibrutinib -0.005 | [10] 0 | ralimetinib 0.011 | [11] 0.059 | [12] 0.29 | [13] 0.054 | pinometostat -0.068 | [15] -0.127

PPP2R5C isoform 5 (UniProt Q13362)
inactive: erlotinib 0.028 | [1] 0.021 | [2] 0.015 | [3] -0.014 | [4] 0.009 | [5] -0.036 | [6] 0.004 | [7] 0.047 | [8] -0.018 | [9] -0.002 | IRAK-1-4 Inhibitor I -0.023 | ibrutinib 0.041 | [10] -0.059 | ralimetinib -0.044 | [11] -0.072 | [12] -0.061 | [13] 0.031 | pinometostat 0.011 | [15] -0.018

2 successive records already listed:
PRKAB1 (UniProt Q9Y478)
inactive: erlotinib 0.043 | [1] 0.15 | [2] 0.052 | [3] -0.011 | [4] -0.06 | [5] 0.024 | [6] 0.019 | [7] 0.026 | [8] -0.076 | [9] 0.068 | IRAK-1-4 Inhibitor I 0.015 | ibrutinib -0.02 | [10] -0.184 | ralimetinib 0.022 | [11] -0.069 | [12] -0.006 | [13] -0.041 | pinometostat -0.048 | [15] 0.015

PRG4 (UniProt Q92954)
inactive: erlotinib 0.002 | [1] -0.109 | [2] 0.011 | [3] -0.085 | [4] 0.15 | [5] 0.024 | [6] -0.139 | [7] -0.171 | [8] -0.143 | [9] 0.031 | IRAK-1-4 Inhibitor I -0.072 | ibrutinib -0.005 | [10] 0 | ralimetinib 0.011 | [11] 0.059 | [12] 0.29 | [13] 0.054 | pinometostat -0.068 | [15] -0.127
